{"source": "PubChem BioAssay AID624297", "about": "(National Center for Advancing Translational Sciences (NCATS), 2012)", "note": "The whole screen tested about 340,000 compounds, of which about 6,200 (1.8%) were called active. The inconclusive results got no clear call from the source; some entries with a clear call stand among them for comparison. Calls come from the whole dose curve; as a rule, active = well fitted activation curve with a large enough effect; inconclusive = small, poorly fitted or top-dose-only effect; inactive = no such curve, though single readings can be large or run the other way. Where the call is inconclusive, the potency comes from a doubtful curve fit. Potency is the fitted concentration of half-maximal effect."}
{"assay": "A quantitative high throughput screen for small molecules that induce DNA re-replication in SW480 colon adenocarcinoma cells; note: nearly all actives have a fitted effect of over 55% in size; for re-replication activation: % of control where 0% means no effect.", "settings": "Hoechst DNA content imaging, 48 h; re-replication activation: at 46.1 µM (top of the series) unless noted", "summary_of_the_method": "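Image-based read-out: total Hoechst fluorescence of nuclei (405 nm excitation, 500-530 nm emission), with hits raising the fraction of high-intensity nuclei. SW480 colon cells incubated 48 hr with compounds at 37 C.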"}
{"smiles": "CC(=O)Nc1c(Br)cc2c(c1Br)Cc1cc([N+](=O)[O-])ccc1-2", "Potency": "active: 4.11 µM"}
{"smiles": "CN(C)c1ccc(S(=O)(=O)N2CCCCC2)cc1NC(=O)C1=NN(c2ccccc2)C(=O)CC1", "re-replication activation": "inactive: -4.07%"}
{"smiles": "Cn1c(NC(=O)c2ccc(F)cc2)nc2ccccc21", "re-replication activation": "inconclusive: 22.5% [activator]"}
{"smiles": "CCOC(=O)N/N=C/c1cccnc1", "Potency": "inconclusive: 0.517 µM [activator, partial curve, poor fit]"}
{"smiles": "Cc1ccc(/C=N/NC(=O)c2cc3c(s2)CCCC3)o1", "re-replication activation": "inactive: 0.386%"}
{"smiles": "OC(Cn1cncn1)(c1ccccc1)c1ccccc1", "re-replication activation": "inactive: 2.55%"}
{"smiles": "CC(=O)c1sc(NC(=O)c2ccc(COc3ccccc3Cl)o2)nc1C", "Potency": "inconclusive: 16.4 µM [activator, partial curve, poor fit]"}
{"smiles": "O=C(CCN1C(=O)/C(=C/c2ccccc2Cl)SC1=S)NCCCN1CCOCC1", "Potency": "inconclusive: 20.6 µM [activator, single point]"}
{"smiles": "CC(C(=O)O)c1ccc(C(=O)c2ccccc2)s1", "note": "(configuration not stated)", "Potency": "inconclusive: 23.1 µM [activator, single point]"}
{"smiles": "CCCCN(C)C(=O)c1nc2ccccn2c1CN1CCC[C@H]1C(=O)OC", "re-replication activation": "inactive: -6.18%"}
{"smiles": "COC(=O)c1ccc(/C=C2/SC(=S)N(CCC(=O)NCCCN3CCOCC3)C2=O)cc1", "re-replication activation": "inactive: 0.504%"}
{"smiles": "O=C(CN1CCN(Cc2ccc(Cl)cc2)C1=O)NCCCN1CCN(c2ccc(F)cc2)CC1", "Potency": "inconclusive: 22.4 µM [activator, single point]"}
{"smiles": "O=C(N/N=C/c1cccc(Oc2ccc([N+](=O)[O-])cc2[N+](=O)[O-])c1)c1cncc(Br)c1", "Potency": "inconclusive: 29.1 µM [activator, single point]"}
{"smiles": "O=C(Nc1ccccc1Sc1ccccc1)C1CCCO1", "note": "(configuration not stated)", "Potency": "inconclusive: 25.9 µM [activator, partial curve, poor fit]"}
{"smiles": "CCN(C(=O)Cn1nnc(-c2ccccc2)n1)C1CCS(=O)(=O)C1", "note": "(configuration not stated)", "Potency": "inconclusive: 6.51 µM [activator, single point]"}
{"smiles": "CCC(=O)NC(c1ccc(OC)cc1)c1c(O)ccc2ccccc12", "note": "(configuration not stated)", "re-replication activation": "inconclusive: 36.3% [activator]"}
{"smiles": "COc1cc2c3c(n(C)c(=O)c2cc1OC)-c1cc2c(cc1C3=O)OCO2", "Potency": "inconclusive: 6.51 µM [activator, partial curve]"}
{"smiles": "CC1Oc2cc3oc4c(O)c(O)ccc4c(=O)c3c(O)c2C1(C)C", "note": "(configuration not stated)", "Potency": "inconclusive: 18.4 µM [activator, single point]"}
{"smiles": "COc1ccccc1C(=O)Nc1ccc(Cc2ccncc2)cc1", "re-replication activation": "inactive: 4.03%"}
{"smiles": "COc1ccc(C(OC(=O)c2ccco2)C(=O)NC2CCCCC2)cc1", "note": "(configuration not stated)", "re-replication activation": "inactive: 0.378%"}
{"smiles": "COc1ccc(-c2oc(=O)c3cc(OC)c(OC)cc3c2-c2cc(F)cc(OC)c2)cc1", "re-replication activation": "inactive: 25.3%"}
{"smiles": "Cc1ccc(-c2nc3ncccc3o2)cc1NC(=O)c1ccc([N+](=O)[O-])o1", "Potency": "active: 2.06 µM"}
{"smiles": "CC(=O)N1CCC(C(=O)N2CCN(S(=O)(=O)c3ccc(F)cc3)CC2)CC1", "re-replication activation": "inactive: -5.34%"}
{"smiles": "COc1ccc(C#Cc2ccc3c(=O)c4ccccc4n(C)c3c2)cc1", "Potency": "inconclusive: 29.1 µM [activator, single point]"}
{"smiles": "COc1ccc(Cn2c(/C=C/c3ccccc3)nc3ccccc32)cc1", "Potency": "inconclusive: 20.6 µM [activator, single point]"}
{"smiles": "Cc1ccc(C2C(C#N)=C(N)Oc3cc4c(cc32)OCO4)cc1", "note": "(configuration not stated)", "Potency": "inconclusive: 29.1 µM [activator, single point]"}
{"smiles": "Cc1c(Nc2nc(-c3cccc([N+](=O)[O-])c3)cs2)c(=O)n(-c2ccccc2)n1C", "Potency": "inconclusive: 6.51 µM [activator, partial curve, poor fit]"}
{"smiles": "CC(OC(=O)/C=C/c1cccs1)C(=O)Nc1ccc(C(N)=O)cc1", "note": "(configuration not stated)", "Potency": "inconclusive: 14.6 µM [activator, partial curve, poor fit]"}
{"smiles": "OCCN(Cc1ccccc1)CC(O)COc1ccc(-c2ccccc2)cc1", "note": "(configuration not stated)", "Potency": "inconclusive: 23.1 µM [activator, single point]"}
{"smiles": "O=C(CN(c1cccc(Br)c1)S(=O)(=O)c1ccccc1)N/N=C/c1cc([N+](=O)[O-])ccc1O", "Potency": "inconclusive: 20.6 µM [activator, single point]"}
{"smiles": "NC(=O)[C@@H]1CCCNc2c(I)cc([N+](=O)[O-])cc2C(=O)N[C@@H](CCC(=O)O)C(=O)N[C@@H](CO)C(=O)N1", "Potency": "inconclusive: 0.461 µM [activator, partial curve, poor fit]"}
{"smiles": "CCCCn1c(NC(=O)c2ccco2)c(S(=O)(=O)c2ccc(C)cc2)c2nc3ccccc3nc21", "Potency": "inconclusive: 0.259 µM [activator, partial curve, poor fit]"}
{"smiles": "Cc1cc(C(=O)Nc2nc(-c3ccccn3)cs2)ccc1[N+](=O)[O-]", "Potency": "inconclusive: 23.1 µM [activator, single point]"}
{"smiles": "CCOc1nc(-c2ccccc2)ccc1-c1noc(-c2cccnc2)n1", "Potency": "inconclusive: 29.1 µM [activator, single point]"}
{"smiles": "Cc1ccc(-n2nc3c(c2NC(=O)c2ccc4c(c2)OCO4)CS(=O)(=O)C3)cc1", "re-replication activation": "inactive: -13.5%"}
{"smiles": "Fc1ccccc1COc1ccc2ccccc2c1CNc1nn[nH]n1", "Potency": "inconclusive: 29.1 µM [activator, single point]"}
{"smiles": "CCN(CC)C(=O)CSc1nc2cc3c(cc2c(=O)n1Cc1ccc(OC)cc1)OCO3", "re-replication activation": "inactive: 4.42%"}
{"smiles": "COc1cccc(CC(NC(C)=O)C(=O)NC2CCN(S(=O)(=O)c3ccc(NC(C)=O)cc3)CC2)c1", "note": "(configuration not stated)", "Potency": "inconclusive: 2.91 µM [activator, partial curve, poor fit]"}
{"smiles": "O=S(=O)(Nc1cccnc1)c1cccnc1", "Potency": "inconclusive: 29.1 µM [activator, partial curve, poor fit]"}
{"smiles": "Cn1nccc1C(=O)NC1CC(C)(C)Cc2c1cnn2-c1ccc(F)cc1", "note": "(configuration not stated)", "re-replication activation": "inactive: 4.13%"}
{"smiles": "CCn1c(=O)c(C(=O)CN2CCN(S(=O)(=O)c3ccc(C)cc3C)CC2)c(N)n(Cc2ccccc2)c1=O", "Potency": "inconclusive: 2.59 µM [activator, full curve, poor fit]"}
{"smiles": "O=C(CSc1nnc2ccc(-c3ccc(Br)cc3)nn12)NCC1CCCO1", "note": "(configuration not stated)", "Potency": "inconclusive: 6.51 µM [activator, partial curve, poor fit]"}
